# Source: the supplement of paper PMC8728848
# This is one part of the list.
# B1: CD72 ectodomain (Homo sapiens), P21854 (protein)
# chain: RYLQVSQQLQQTNRVLEVTNSSLRQQLRLKITQLGQSAEDLQGSRRELAQSQEALQVEQRAHQAAEGQLQACQADRQKTKETLQSEEQQRRALEQKLSNMENRLKPFFTCGSADTCCPSGWIMHQKSCFYISLTSKNWQESQKQCETLSSKLATFSEIYPQSHSYYFLNSLLPNGGSGNSYWTGLSSNKDWKLTDDTQRTRTYAQSSKCNKVHKTWSWWTLESESCRSSLPYICEMTAFRFPD
# What was measured:
# Test in all cases: glycan array binding signal (z-score within array); higher = stronger binding
# Conditions in all cases: glycan notation: IUPAC condensed, linker removed
# GalNAc(b1-3)Gal = molecular target: GalNAc(b1-3)Gal
# Procedure, shortened: (§1)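 Glycan array data were curated from 3228 arrays in the Consortium for Functional Glycomics database and kept only where the protein sequence was available. Glycan names were converted to IUPAC-condensed notation, and columns mapping to the same glycan were averaged. The binding signal is a within-array Z-score, averaged across arrays of the same protein sequence at different concentrations or buffers and across linkers. Negative Z-scores can be read as non-binding.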
# [1] = molecular target: GalNAc(b1-3)Gal(a1-4)Gal(b1-4)GlcNAc
# Procedure, shortened: as §1
# [2] = molecular target: GalNAc(b1-3)Gal(a1-4)Gal(b1-4)GlcNAc(b1-3)Gal(b1-4)Glc
# Procedure, shortened: as §1
# [3] = molecular target: GalNAc(b1-3)Gal(a1-6)Gal(b1-4)Glc
# Procedure, shortened: as §1
# GalNAc(b1-3)GalNAc = molecular target: GalNAc(b1-3)GalNAc
# Procedure, shortened: as §1
# GalNAc(b1-4)Gal(b1-4)Glc = molecular target: GalNAc(b1-4)Gal(b1-4)Glc
# Procedure, shortened: as §1
# GalNAc(b1-4)GlcNAc = molecular target: GalNAc(b1-4)GlcNAc
# Procedure, shortened: as §1
# [4] = molecular target: GalNAc(b1-4)GlcNAc(b1-2)Man(a1-3)[GalNAc(b1-4)GlcNAc(b1-2)Man(a1-6)]Man(b1-4)GlcNAc(b1-4)GlcNAc
# Procedure, shortened: as §1
# GalNAc(b1-6)GalNAc = molecular target: GalNAc(b1-6)GalNAc
# Procedure, shortened: as §1
# Glc(a1-4)Glc = molecular target: Glc(a1-4)Glc
# Procedure, shortened: as §1
# [5] = molecular target: Glc(a1-4)Glc(a1-4)Glc(a1-4)Glc
# Procedure, shortened: as §1
# Glc(a1-6)Glc(a1-6)Glc = molecular target: Glc(a1-6)Glc(a1-6)Glc
# Procedure, shortened: as §1
# [6] = molecular target: Glc(a1-6)Glc(a1-6)Glc(a1-6)Glc
# Procedure, shortened: as §1
# Glc(b1-4)Glc = molecular target: Glc(b1-4)Glc
# Procedure, shortened: as §1
# Glc(b1-6)Glc = molecular target: Glc(b1-6)Glc
# Procedure, shortened: as §1
# GlcA(b1-3)Gal = molecular target: GlcA(b1-3)Gal
# Procedure, shortened: as §1
# GlcA(b1-3)GlcNAc = molecular target: GlcA(b1-3)GlcNAc
# Procedure, shortened: as §1
# GlcA(b1-6)Gal = molecular target: GlcA(b1-6)Gal
# Procedure, shortened: as §1
# [7] = molecular target: GlcNAc(a1-3)Gal(b1-4)GlcNAc
# Procedure, shortened: as §1
# [8] = molecular target: GlcNAc(a1-4)Gal(b1-3)GlcNAc
# Procedure, shortened: as §1
# [9] = molecular target: GlcNAc(a1-4)Gal(b1-4)GalNAc
# Procedure, shortened: as §1
# [10] = molecular target: GlcNAc(a1-4)Gal(b1-4)GlcNAc
# Procedure, shortened: as §1
# [11] = molecular target: GlcNAc(a1-4)Gal(b1-4)GlcNAc(b1-3)Gal(b1-4)Glc
# Procedure, shortened: as §1
# [12] = molecular target: GlcNAc(a1-4)Gal(b1-4)GlcNAc(b1-3)Gal(b1-4)GlcNAc
# Procedure, shortened: as §1
# [13] = molecular target: GlcNAc(a1-4)Gal(b1-4)GlcNAc(b1-3)Gal(b1-4)GlcNAc(b1-3)Gal(b1-4)GlcNAc
# Procedure, shortened: as §1
# [14] = molecular target: GlcNAc(a1-4)Gal(b1-4)GlcNAc(b1-3)Gal(b1-4)[Fuc(a1-3)]GlcNAc(b1-3)Gal(b1-4)[Fuc(a1-3)]GlcNAc
# Procedure, shortened: as §1
# [15] = molecular target: GlcNAc(a1-6)Gal(b1-4)GlcNAc
# Procedure, shortened: as §1
# [16] = molecular target: GlcNAc(b1-2)Gal(b1-3)GalNAc
# Procedure, shortened: as §1
# [17] = molecular target: GlcNAc(b1-2)Man(a1-3)[GlcNAc(b1-2)Man(a1-6)]Man(b1-4)GlcNAc(b1-4)GlcNAc
# Procedure, shortened: as §1
# [18] = molecular target: GlcNAc(b1-2)Man(a1-3)[GlcNAc(b1-2)Man(a1-6)]Man(b1-4)GlcNAc(b1-4)[Fuc(a1-6)]GlcNAc
# Procedure, shortened: as §1
# [19] = molecular target: GlcNAc(b1-2)Man(a1-3)[GlcNAc(b1-4)][GlcNAc(b1-2)Man(a1-6)]Man(b1-4)GlcNAc(b1-4)GlcNAc
# Procedure, shortened: as §1
# [20] = molecular target: GlcNAc(b1-2)[GlcNAc(b1-4)]Man(a1-3)[GlcNAc(b1-2)Man(a1-6)]Man(b1-4)GlcNAc(b1-4)GlcNAc
# Procedure, shortened: as §1
# [21] = molecular target: GlcNAc(b1-2)[GlcNAc(b1-4)]Man(a1-3)[GlcNAc(b1-4)][GlcNAc(b1-2)Man(a1-6)]Man(b1-4)GlcNAc(b1-4)GlcNAc
# Procedure, shortened: as §1
# [22] = molecular target: GlcNAc(b1-2)[GlcNAc(b1-4)]Man(a1-3)[GlcNAc(b1-4)][GlcNAc(b1-2)[GlcNAc(b1-6)]Man(a1-6)]Man(b1-4)GlcNAc(b1-4)GlcNAc
# Procedure, shortened: as §1
# [23] = molecular target: GlcNAc(b1-2)[GlcNAc(b1-6)]Man(a1-6)[GlcNAc(b1-2)Man(a1-3)]Man(b1-4)GlcNAc(b1-4)GlcNAc
# Procedure, shortened: as §1
# [24] = molecular target: GlcNAc(b1-2)[GlcNAc(b1-6)]Man(a1-6)[GlcNAc(b1-2)Man(a1-3)][GlcNAc(b1-4)]Man(b1-4)GlcNAc(b1-4)GlcNAc
# Procedure, shortened: as §1
# GlcNAc(b1-3)Gal = molecular target: GlcNAc(b1-3)Gal
# Procedure, shortened: as §1
# [25] = molecular target: GlcNAc(b1-3)Gal(b1-3)GalNAc
# Procedure, shortened: as §1
binder,measurement,setting,value
B1,glycan array binding signal (z-score),GalNAc(b1-3)Gal,-0.844
same,glycan array binding signal (z-score),[1],-0.315
same,glycan array binding signal (z-score),[2],-0.842
same,glycan array binding signal (z-score),[3],0.123
same,glycan array binding signal (z-score),GalNAc(b1-3)GalNAc,-0.248
same,glycan array binding signal (z-score),GalNAc(b1-4)Gal(b1-4)Glc,1.59
same,glycan array binding signal (z-score),GalNAc(b1-4)GlcNAc,0.596
same,glycan array binding signal (z-score),[4],-0.456
same,glycan array binding signal (z-score),GalNAc(b1-6)GalNAc,-0.435
same,glycan array binding signal (z-score),Glc(a1-4)Glc,-0.976
same,glycan array binding signal (z-score),[5],0.022
same,glycan array binding signal (z-score),Glc(a1-6)Glc(a1-6)Glc,-1.44
same,glycan array binding signal (z-score),[6],1.11
same,glycan array binding signal (z-score),Glc(b1-4)Glc,-0.195
same,glycan array binding signal (z-score),Glc(b1-6)Glc,-0.267
same,glycan array binding signal (z-score),GlcA(b1-3)Gal,2.21
same,glycan array binding signal (z-score),GlcA(b1-3)GlcNAc,-0.556
same,glycan array binding signal (z-score),GlcA(b1-6)Gal,-0.506
same,glycan array binding signal (z-score),[7],-0.623
same,glycan array binding signal (z-score),[8],-1.11
same,glycan array binding signal (z-score),[9],-0.109
same,glycan array binding signal (z-score),[10],-0.957
same,glycan array binding signal (z-score),[11],0.006
same,glycan array binding signal (z-score),[12],4.25
same,glycan array binding signal (z-score),[13],0.153
same,glycan array binding signal (z-score),[14],1.91
same,glycan array binding signal (z-score),[15],4.24
same,glycan array binding signal (z-score),[16],-1.19
same,glycan array binding signal (z-score),[17],-0.238
same,glycan array binding signal (z-score),[18],2.59
same,glycan array binding signal (z-score),[19],-0.418
same,glycan array binding signal (z-score),[20],0.649
same,glycan array binding signal (z-score),[21],-0.785
same,glycan array binding signal (z-score),[22],0.252
same,glycan array binding signal (z-score),[23],-0.215
same,glycan array binding signal (z-score),[24],0.485
same,glycan array binding signal (z-score),GlcNAc(b1-3)Gal,-0.65
same,glycan array binding signal (z-score),[25],1

# Fetched one by one from the entries so far:
binder,measurement,setting,value
B1,glycan array binding signal (z-score),[12],4.25
same,glycan array binding signal (z-score),[18],2.59
